Laboratory results from PubChem BioAssay AID330 (DTP/NCI, 2004).
The list shows only some results of the screen, not a fair sample: it gathers tests that were run many times, whatever their T/C, doses with no T/C, and many T/C values between a quarter and a half above the control. Other doses and runs of a compound stand elsewhere. T/C is the treated group as % of the vehicle group. Some doses have a count of surviving animals in place of a T/C: the source files T/C as zero there, which appears to mark a toxic dose or a test without result, not a measured value. Some doses without a T/C left all or most animals alive at the check, yet need not have been tolerated: survival well below the control is almost never listed, so the zero probably covers shortened survival too. Survivors were counted at the toxicity check, usually on the fifth day, unless a day is given; later deaths do not show. Schedules are NCI's codes, taken here to give the interval after Q, in days (D) or hours (H), and the number of doses after X. Some entries hold several experiments; the results are listed from low to high. Counts like (3×) give the number of equal values in this list. For survival time, the PubChem record calls one and a half times the control and up active, and a quarter to a half above the control has no call in these data; cut-offs in other NCI protocols can differ. Some T/C values carry the count of animals alive at the toxicity check (mostly the fifth day); without a count, all were alive then. Some schedules carry Z or #; the key to these is not given.

System: P388 leukemia ip, CD2F1 mice, survival T/C
Test: NCI In Vivo Anticancer Drug Screen. Data for tumor model P388 Leukemia (intraperitoneal) in CD2F1 (CDF1) mice
Settings: T/C endpoint: median survival time, higher T/C = longer survival
[1] = dose: 200.0 mg/kg/injection, schedule: Q01DX005 (ip), vehicle: Klucel (hydroxypropylcellulose) (HPC)
[2] = dose: 200.0 mg/kg/injection, schedule: Q01DX009 (ip), vehicle: Klucel (hydroxypropylcellulose) (HPC)
[3] = dose: 400.0 mg/kg/injection, schedule: Q01DX001 (ip), vehicle: Klucel (hydroxypropylcellulose) (HPC)
[4] = dose: 400.0 mg/kg/injection, schedule: Q04DX002 (ip), vehicle: Klucel (hydroxypropylcellulose) (HPC)

Compound: O=P1(N(CCCl)CCCl)NCCCO1 (centres undefined)
- T/C (dose: 200.0 mg/kg/injection, schedule: Q01DX001 (ip), vehicle: saline, evaluated on day 35): 350 % of control
- T/C (dose: 200.0 mg/kg/injection, schedule: Q01DX001 (ip), vehicle: saline, evaluated on day 60): 208, 229, 242, 300, 534 % of control (2×)
- T/C [1]: 90 and 99 % of control
- survivor count [1]: 1 of 3, 3 of 6, 2 of 3, 4 of 6, 5 of 6, 3 of 3, 6 of 6 (2×)
- survivor count (dose: 200.0 mg/kg/injection, schedule: Q01DX005 (ip), vehicle: saline): 5 of 6
- T/C [2]: 86 [5 of 6 alive], 93 (2×), 109 % of control
- survivor count [2]: 2 of 3, 4 of 6, 5 of 6 (2×), 3 of 3, 6 of 6
- survivor count (dose: 200.0 mg/kg/injection, schedule: Q01DX009 (ip), vehicle: saline): 10 of 10 and 6 of 6
- survivor count (dose: 200.0 mg/kg/injection, schedule: Q01DX009 (ip), vehicle: water): 6 of 6
- T/C (dose: 200.0 mg/kg/injection, schedule: Q04DX002 (ip), vehicle: Klucel (hydroxypropylcellulose) (HPC)): 113, 116, 121, 126, 137, 150, 151, 157, 166, 170, 176, 179, 193, 202, 220, 223 (2×), 226 (2×), 232, 243, 245, 247, 255, 259, 260, 269, 270, 271 (3×), 275 (2×), 285, 294 % of control
- T/C (dose: 200.0 mg/kg/injection, schedule: Q04DX003 (ip), vehicle: Klucel (hydroxypropylcellulose) (HPC), evaluated on day 30): 86, 95, 96, 99, 111, 112, 114 (2×), 115, 117, 119, 123 (2×), 125, 127 (2×), 129, 130, 133 (2×), 136, 137, 139, 140, 142, 144, 155, 163, 169, 174, 199, 236 % of control
- T/C (dose: 200.0 mg/kg/injection, schedule: Q04DX003 (ip), vehicle: Klucel (hydroxypropylcellulose) (HPC), evaluated on day 35): 162 % of control
- survivor count (dose: 200.0 mg/kg/injection, schedule: Q04DX003 (ip), vehicle: Klucel (hydroxypropylcellulose) (HPC)): 3 of 3 and 6 of 6
- T/C (dose: 200.0 mg/kg/injection, schedule: Q04DX003 (ip), vehicle: water): 126 % of control
- T/C (dose: 200.0 mg/kg/injection, schedule: Q## X001 (ip), vehicle: saline): 95 [9 of 10 alive], 176, 185, 232 % of control [9 of 10 alive]
- T/C (dose: 265.0 mg/kg/injection, schedule: Q01DX001 (ip), vehicle: saline, evaluated on day 45): 411, 427 [9 of 10 alive], 432, 450 % of control (2×)
- T/C (dose: 265.0 mg/kg/injection, schedule: Q01DX001 (ip), vehicle: saline, evaluated on day 60): 540, 560, 566 (2×), 571, 576 % of control
- T/C (dose: 267.0 mg/kg/injection, schedule: Q01DX001 (ip), vehicle: water): 127 % of control
- T/C (dose: 300.0 mg/kg/injection, schedule: Q01DX001 (ip), vehicle: saline, evaluated on day 5): 252, 270, 275, 279 % of control
- T/C (dose: 300.0 mg/kg/injection, schedule: Q01DX001 (ip), vehicle: saline, evaluated on day 9): 70, 90, 98, 110, 159, 247, 263, 266, 294, 355 % of control
- T/C (dose: 300.0 mg/kg/injection, schedule: Q01DX001 (ip), vehicle: saline, evaluated on day 11): 311 % of control
- T/C (dose: 300.0 mg/kg/injection, schedule: Q01DX001 (ip), vehicle: saline, evaluated on day 30): 168 % of control
- T/C (dose: 300.0 mg/kg/injection, schedule: Q01DX001 (ip), vehicle: saline, evaluated on day 60): 252, 533, 535, 560 % of control
- survivor count (dose: 300.0 mg/kg/injection, schedule: Q04DX003 (ip), vehicle: saline): 8 of 8
- T/C (dose: 300.0 mg/kg/injection, schedule: Q## X001 (ip), vehicle: saline): 98, 110, 159, 247 [9 of 10 alive], 266, 275, 294 % of control
- T/C [3]: 90 [2 of 3 alive], 92 [2 of 3 alive], 105, 107 [5 of 6 alive], 115, 117, 117 [5 of 6 alive], 152, 153, 160 [5 of 6 alive], 169, 200, 254 [2 of 3 alive], 260 [5 of 6 alive], 267, 272, 280, 286 [2 of 3 alive], 287, 288 % of control
- survivor count [3]: 0 of 3, 1 of 3, 2 of 6, 3 of 6, 2 of 3, 5 of 6, 3 of 3, 6 of 6 (2×)
- T/C (dose: 400.0 mg/kg/injection, schedule: Q01DX001 (ip), vehicle: saline, evaluated on day 5): 125 and 300 % of control
- T/C (dose: 400.0 mg/kg/injection, schedule: Q01DX001 (ip), vehicle: saline, evaluated on day 10): 181 % of control
- T/C (dose: 400.0 mg/kg/injection, schedule: Q01DX001 (ip), vehicle: saline, evaluated on day 21): 194 % of control
- T/C (dose: 400.0 mg/kg/injection, schedule: Q01DX001 (ip), vehicle: saline, evaluated on day 30): 89, 90 [5 of 6 alive], 123, 140 [4 of 6 alive], 162 [5 of 6 alive], 171, 220 [5 of 6 alive], 232, 257, 265, 277, 283 [5 of 6 alive], 285 [5 of 6 alive], 294 (2×), 297, 300 (2×), 303, 309 % of control
- T/C (dose: 400.0 mg/kg/injection, schedule: Q01DX001 (ip), vehicle: saline, evaluated on day 35): 163 % of control
- T/C (dose: 400.0 mg/kg/injection, schedule: Q01DX001 (ip), vehicle: saline, evaluated on day 60): 174 and 550 % of control
- survivor count (dose: 400.0 mg/kg/injection, schedule: Q01DX001 (ip), vehicle: saline): 0 of 6, 3 of 6, 4 of 6, 5 of 6, 6 of 6
- T/C (dose: 400.0 mg/kg/injection, schedule: Q01DX001 (ip), vehicle: water, evaluated on day 6): 147 % of control
- T/C (dose: 400.0 mg/kg/injection, schedule: Q01DX001 (ip), vehicle: water, evaluated on day 10): 109 % of control
- T/C (dose: 400.0 mg/kg/injection, schedule: Q01DX001 (ip), vehicle: water, evaluated on day 30): 125 [4 of 6 alive] and 291 % of control
- survivor count (dose: 400.0 mg/kg/injection, schedule: Q01DX009 (ip), vehicle: saline): 3 of 6
- T/C [4]: 86 [4 of 6 alive], 90 (2×), 92, 93, 102, 109, 114, 129, 203, 236, 270 % of control
- survivor count [4]: 1 of 3, 3 of 6, 2 of 3, 4 of 6, 5 of 6, 3 of 3, 6 of 6
- T/C (dose: 400.0 mg/kg/injection, schedule: Q04DX003 (ip), vehicle: Klucel (hydroxypropylcellulose) (HPC), evaluated on day 30): 86, 88, 92, 100 % of control
- T/C (dose: 400.0 mg/kg/injection, schedule: Q04DX003 (ip), vehicle: Klucel (hydroxypropylcellulose) (HPC), evaluated on day 35): 93 % of control [5 of 6 alive]
- survivor count (dose: 400.0 mg/kg/injection, schedule: Q04DX003 (ip), vehicle: Klucel (hydroxypropylcellulose) (HPC)): 1 of 3, 3 of 6, 2 of 3, 4 of 6, 5 of 6, 3 of 3, 6 of 6
- survivor count (dose: 500.0 mg/kg/injection, schedule: Q01DX001 (iv), vehicle: saline): 1 of 6
